# For at least one compound, name, drawing or mass did not settle the structure.
# System: C. testosteroni ProA aldolase and L-aspartate aminotransferase (AspC)
# Experiment: production of monatin utilizing alternative C3-carbon sources
# Assay type: biochemical
# Settings: additional PLP enzyme: 80 μg double mutant TNA
# Experimental: The reaction mixture consisted of 50 mM Tris-Cl pH 8.3, 2 mM MgCl2, 200 mM C3 carbon source, 5 mM alpha-ketoglutarate, sodium salt, 0.05 mM pyridoxal phosphate, deaerated water to achieve a final volume of 0.5 mL after the addition of the enzymes, 3 mM potassium phosphate pH 7.5, 25 μg of crude recombinant C. testosteroni ProA aldolase as prepared in Example 2, 500 μg of crude L-aspartate aminotransferase (AspC) as prepared in Example 1, and solid tryptophan to afford a concentration of >60 mM (saturated; some undissolved throughout the reaction). The reaction mix was incubated at 30° C. for 30 minutes with mixing. Serine, alanine, and aspartate were supplied as 3-carbon sources. Assays were performed with and without secondary PLP enzymes (purified) capable of performing beta-elimination and beta-lyase reactions (tryptophanase (TNA), double mutant tryptophanase, β-tyrosinase (TPL)).
smiles,measurement,value
N[C@@H](CC(=O)O)C(=O)O [aspartate],Relative Activity,3.3%

# — patent US8206955B2, “Production of monatin and monatin precursors” (Cargill, Incorporated, priority 2003, dated 2012)
